In publication doi:10.1101/2021.07.20.453058 (bioRxiv, 2021) one finds binding data, which are given here for 1 molecule.

These are yes or no findings as the source states them, for the method shown. Where a sequence is shown, tags or fusion partners need not be part of it.

The experiment concerns the target KaiA3 (Sll0485), GAL4 DNA-binding domain fusion (Synechocystis sp. PCC 6803). Nature of the experiment: two-hybrid.

B1: KaiC1, GAL4 fusion for yeast two-hybrid (protein, UniProt P74646 1-519)
chain: MNLPIVNERNRPDVPRKGVQKIRTVIEGFDEITHGGLPIGRTTLVSGTSGTGKTLLAVQFLYQGIHHFDYPGLFITFEESPSDIIENAYSFGWDLQQLIDDGKLFILDASPDPEGQEVVGTFDLSALIERIQYAVRKYKAKLVSIDSVTAVFQQYDAASVVRREIFRLVARLKQLQVTSIMTTERVEEYGPIARFGVEEFVSDNVVVLRNVLEGERRRRTVEILKLRGTTHMKGEYPFTITHDGINIFPLGAMRLTQRSSNARISSGVQTLDEMCGGGFFKDSIILATGATGTGKTLLVSKFLQEGCRQRERAILFAYEESRAQLSRNASSWGIDFEEMEHKGLLKLLCTYPESAGLEDHLQMIKSEISEFKPSRIAIDSLSALARGVTNNAFRQFVIGVTGYAKQEEITGFFTNTTDQFMGAHSITESHISTITDTILMLQYVEIRGEMSRALNVFKMRGSWHDKGIREYSISHDGPDIRDSFRNYERIISGSPTRISVDEKSELSRIVRGVKDKTAE
Turning to B1, the binding entry was “no binding”.
